{
  "source": "patent US9757408B2",
  "about": "(Hayashibara Co., Ltd., priority 2010, dated 2017)",
  "system": "KK-Ay mice",
  "assay": "KK-Ay mice kidney inflammation: body weight, kidney ratio, blood glucose, HbA1c, renal glomerulus consolidation (Experiment 14)",
  "format": "in vivo",
  "conditions": "10 weeks; for Weight ratio of kidney: (Weight of kidney)/(Body weight)",
  "description": "Fifty KK-Ay mice, 5-week-old, male, commercialized by Japan Crea Co., Tokyo, Japan, were preliminary bred for one week on CE-2 feed commercialized by Japan Crea Co., Tokyo, Japan, measured for body weight and blood glucose level in blood samples collected from their tail veins, and randomly grouped into five groups, ten heads each, after balancing each measured value. One of the five groups was made into a control group and the mice of the group were allowed to take water freely and bred for 10 weeks (Experiment group 1). […] Throughout the periods of preliminary breeding and testing, the mice were bred while freely allowing them to take CE-2 feed at 22±2° C. under a light-dark cycle of 12 hours (lighting: from 7:00 to 19:00). At the termination of the test, the mice were evaluated based on their body weight, weight ratio of kidney, blood glucose level, hemoglobin A1c (HbA1c), and pathological findings of renal disorder by autopsy, and the percentage of mice with at least 50% consolidation (++) of renal glomerulus against the total glomus is shown in Table 15. The weight ratio of kidney was determined by dividing the weight of kidney by the body weight. The blood glucose level, HbA1c, and denatured score of renal glomerulus were determined by the following method.\nAt the termination of the test, the mice were fasted for 16 hours prior to autopsy and collected blood from their postcava for measurement of fasting glucose level. The blood glucose level was determined by “GLUCOSE CII-TEST WAKO”, a product name of a commercialized reagent for blood glucose level commercialized by Wako Pure Chemical Industries Ltd., Tokyo, Japan.\nAt the termination of the test, the mice were fasted for 16 hours before autopsy and collected blood from their postcava for measurement of interdigestive HbA1c level. The measurement was asked FALCO biosystems Ltd., Kyoto, Japan, a privately-owned clinical inspection institute.\nAt the autopsy, each mouse was collected his kidney which was then fixed with neutral buffered formalin, prepared into a pathologic tissue section in usual manner, and stained with hematoxylin-eosin staining (H-E staining) and PAS staining. For the stained pathologic tissue section of each mouse, they were compared with that of the control and the pathological findings by microscopic observation were judged based on the following criteria and scored for an index of the denaturation of renal disorder.\nThe degree of renal disorder was judged based on the degree of consolidation of renal glomerulus: The degree was judged based on the four grades; (++), meaning that at least 50% consolidation of renal glomerulus is observed against the total glomus; (+), meaning that at least 25% but below 50% consolidation of renal glomerulus is observed against the total glomus; (±), meaning that less than 25% consolidation of renal glomerulus is observed against the total glomus; and (−), meaning that no consolidation of renal glomerulus is observed against the total glomus. The pathological findings of kidney was judged based on an evaluation criterion for pathologic tissue (see, for example, the lines 12 to 21 at page 862 of “American Journal of Pathology”, Vol. 160, No. 3, pp. 861-867, 2002, by Andrea Hartner et al.).",
  "key": {"[1]": {"conditions": "30 mg/kg body weight/day in drinking water"}},
  "data": [
    {"compound": "Nc1ncnc2c1ncn2[C@@H]1O[C@H](CO)[C@@H](O)[C@H]1O", "note": "[AN, adenosine]", "values": [
      {"measurement": "Body weight", "setting": "94 mg/kg body weight/day", "value": 43.5, "unit": "g"}
    ]},
    {"compound": "Nc1c2ncn([C@@H]3O[C@H](CO)[C@@H](O)[C@H]3O)c2nc[n+]1[O-]", "note": "[ANO, adenosine N1-oxide]", "values": [
      {"measurement": "Body weight", "setting": "[1]", "value": 43.8, "unit": "g"},
      {"measurement": "Weight ratio of kidney", "setting": "[1]", "value": 0.013},
      {"measurement": "Body weight", "setting": "100 mg/kg body weight/day in drinking water", "value": 42.8, "unit": "g"},
      {"measurement": "Weight ratio of kidney", "setting": "100 mg/kg body weight/day", "value": 0.013}
    ]},
    {"compound": "OC[C@H]1O[C@@H](n2cnc3c(O)ncnc32)[C@H](O)[C@@H]1O", "note": "[IN, inosine]", "values": [
      {"measurement": "Body weight", "setting": "94 mg/kg body weight/day", "value": 43.2, "unit": "g"},
      {"measurement": "Weight ratio of kidney", "setting": "94 mg/kg body weight/day", "value": 0.013}
    ]}
  ]
}
